Measured values reported in the supplement of paper PMC12067093, “Discovery and optimisation of a covalent ligand for TRIM25 and its application to targeted protein ubiquitination” (Chemical Science, 2025).
The other results are listed elsewhere or left out.

Compound: CC1Cc2ccccc2N1C(=O)C1CCCN(C1)C(=O)CCl (mixture of isomers) [TRIM25 ligand 11 (diastereomer mixture)]
Test: probe-labelled cysteine peptide fold change vs DMSO (competition) (log2 fold change); higher = less target engagement (more negative = stronger competition)
Settings: THP-1, incubation time: 4 h
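Also: competitive chemoproteomic profiling in live THP-1 cells with an iodoacetamide desthiobiotin (IA-DTB) probe, comparing probe-labelled peptide intensities in compound-treated cells against DMSO-treated controls.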

| Target | probe-labelled cysteine peptide fold change (10 µM) | probe-labelled cysteine peptide fold change (50 µM) |
| --- | --- | --- |
| GOT2_P00505_187+212_TCGFDFTGAVEDISKIPEQSVLLLHACAHNPTGVDPRPEQWK (UniProt P00505) | -0.113 | -0.363 |
| GLMP_Q8WWB7_216_LLHTADTCQLEVALIGASPR (UniProt Q8WWB7) | -0.18 | -0.301 |
| GLRX_P35754_8_AQEFVNCK (UniProt P35754) | -0.0899 | -0.236 |
| GNPNAT1_Q96EK6_45_EVDWSQNTATFSPAISPTHPGEGLVLRPLCTADLNR (UniProt Q96EK6) | -0.0144 | 0.0117 |
| GLO1_Q04760_139_GFGHIGIAVPDVYSACK (UniProt Q04760) | -0.0576 | -0.00736 |
| GNL3_Q9BVP2_131_KLYCQELK (UniProt Q9BVP2) | -0.154 | -0.278 |
| GLRX5_Q86SX6_67_GTPEQPQCGFSNAVVQILR (UniProt Q86SX6) | -0.319 | – |
| GOT2_P00505_382_EGSTHNWQHITDQIGMFCFTGLKPEQVER (UniProt P00505) | -0.0654 | -0.227 |
| GNE_Q9Y223_303_HVPFDQFIQLVAHAGCMIGNSSCGVR (UniProt Q9Y223) | -0.0267 | -0.232 |
| GNA13_Q14344_318_DYFLEFEGDPHCLR (UniProt Q14344) | 0.3 | 0.286 |
| GOLGB1_Q14789_3144_SDPEELREPQQSFSEAQQQLCNTR (UniProt Q14789) | 0.00424 | -0.0107 |
| GNAI2_P04899_326_EIYTHFTCATDTK (UniProt P04899) | 0.0806 | 0.165 |
| GLIPR1_P48060_156_VGCAVQFCPK (UniProt P48060) | 0.0114 | -0.107 |
| GPI_P06744_404_MIPCDFLIPVQTQHPIR (UniProt P06744) | 0.0448 | 0.0525 |
| GLG1_Q92896_671_TETGQELECLQDHLDDLVVECR (UniProt Q92896) | 0.0613 | -0.00969 |
| GNB2_P62879_271_ADQELLMYSHDNIICGITSVAFSR (UniProt P62879) | 0.198 | 0.0704 |
| GNAI2_P04899_140_RLWADHGVQACFGR (UniProt P04899) | -0.209 | 0.0431 |
| GIT2_Q14161_672_HDSYIPCSER (UniProt Q14161) | 0.249 | -0.236 |
| GNE_Q9Y223_160_LAHYHVCCTR (UniProt Q9Y223) | 0.0217 | 0.0965 |
| GLUD1_P00367_376_PYEGSILEADCDILIPAASEK (UniProt P00367) | -0.0111 | -0.112 |
| GNB1_P62873_148_ELAGHTGYLSCCR (UniProt P62873) | 0.0175 | 0.0947 |
| GM2A_P17900_138_TYGLPCHCPFK (UniProt P17900) | 0.00974 | 0.523 |

| Target | probe-labelled cysteine peptide fold change (10 µM) | probe-labelled cysteine peptide fold change (50 µM) |
| --- | --- | --- |
| GNL2_Q13823_362_IFLIDCPGVVYPSEDSETDIVLK (UniProt Q13823) | -0.0448 | 0.153 |
| GLG1_Q92896_324_FCENTQAGEGR (UniProt Q92896) | 0.0937 | 0.0961 |
| GNAI2_P04899_287_ITHSPLTICFPEYTGANK (UniProt P04899) | 0.0199 | -0.121 |
| GMPS_P49915_456_VICAEEPYICK (UniProt P49915) | 0.0291 | 0.0222 |
| GNS_P15586_140_SMCGYQTFFAGK (UniProt P15586) | -0.111 | -0.0983 |
| GNAI1_P63096_66_IIHEAGYSEEECK (UniProt P63096) | 0.219 | -0.00386 |
| GLG1_Q92896_767_LCPNIK (UniProt Q92896) | 0.0706 | 0.244 |
| GLMP_Q8WWB7_300_ESALPCQASPLHPALAYSLPQSPIVR (UniProt Q8WWB7) | 0.223 | 0.011 |
| GOPC_Q9HD26_81_MTSLSSCFAQLCHK (UniProt Q9HD26) | 0.211 | 0.208 |
| GLS_O94925_266_FSPDLWGVSVCTVDGQR (UniProt O94925) | 0.109 | -0.00933 |
| GLO1_Q04760_61_CDFPIMK (UniProt Q04760) | -0.0348 | 0.0151 |
| GMPS_P49915_489_ACTTEEDQEK (UniProt P49915) | -0.00635 | 0.106 |
| GLOD4_Q9HC38-2_45_AACNGPYDGK (UniProt Q9HC38) | -0.0467 | -0.24 |
| GNE_Q9Y223_296_HVPFDQFIQLVAHAGCMIGNSSCGVR (UniProt Q9Y223) | 0.388 | -0.027 |
| GNAI2_P04899_112_QLFALSCTAEEQGVLPDDLSGVIR (UniProt P04899) | -0.142 | -0.0648 |
| GNL3_Q9BVP2_113_EFGLCK (UniProt Q9BVP2) | -0.0985 | -0.144 |
| GOLGA4_Q13439_853_DVCTELDAHK (UniProt Q13439) | -0.0317 | 0.042 |
| GNL2_Q13823_336_VCNVAPIAGETK (UniProt Q13823) | 0.0582 | 0.00821 |
| GPD2_P43304_546_EYACTAVDMISR (UniProt P43304) | 0.0552 | 0.0509 |
| GOLGA4_Q13439_309_EQCTLLTSEK (UniProt Q13439) | 0.00819 | -0.0895 |
| GNL3L_Q9NVN8_518_SNSMVDVCSVDR (UniProt Q9NVN8) | -0.0413 | -0.241 |
| GMPS_P49915_213_NFLYDIAGCSGTFTVQNR (UniProt P49915) | -0.0358 | -0.0372 |

| Target | probe-labelled cysteine peptide fold change (10 µM) | probe-labelled cysteine peptide fold change (50 µM) |
| --- | --- | --- |
| GPA33_Q99795_43_SVTLPCTYHTSTSSR (UniProt Q99795) | 0.259 | 0.0836 |
| GMPS_P49915_252_VLVLLSGGVDSTVCTALLNR (UniProt P49915) | -0.153 | 0.0888 |
| GPD1L_Q8N335_9_VCIVGSGNWGSAVAK (UniProt Q8N335) | -0.197 | 0.0282 |
| GNAI2_P04899_66_IIHEDGYSEEECR (UniProt P04899) | 0.123 | -0.00252 |
| GNPDA1_P46926_239_TVFVCDEDATLELK (UniProt P46926) | -0.0544 | 0.07 |
| GPATCH4_Q5T3I0_152_ILTDEMLLQACEGR (UniProt Q5T3I0) | 0.108 | 0.0941 |
| GLOD4_Q9HC38_171_SLNYWCNLLGMK (UniProt Q9HC38) | -0.0328 | -0.119 |
| GPHN_Q9NQX3_284_LSTASCPTPK (UniProt Q9NQX3) | -0.0997 | -0.273 |
| GNB2_P62879_204_TFVSGACDASIK (UniProt P62879) | 0.0639 | 0.0528 |
| GNB1_P62873_204_LFVSGACDASAK (UniProt P62873) | -0.0694 | -0.0331 |
| GOLGA3_Q08378_477_QSCWDLER (UniProt Q08378) | 0.119 | 0.318 |
| GLA_P06280_382_GVACNPACFITQLLPVK (UniProt P06280) | -0.0456 | -0.0109 |
| GNAI2_P04899-6_14_KIIHEDGYSEEECR (UniProt P04899) | 0.0446 | -0.0273 |
| GOT1_P17174_46_TDDCHPWVLPVVK (UniProt P17174) | 0.0408 | -0.0235 |
| GNS_P15586_513_LMMLQSCSGPTCR (UniProt P15586) | -0.101 | 0.00513 |
| GNPNAT1_Q96EK6_128_GRVEDVVVSDECR (UniProt Q96EK6) | 0.0187 | 0.125 |
| GLG1_Q92896_140_HTWSNNLAVLECLQDVR (UniProt Q92896) | -0.199 | -0.0191 |
| GLUL_P15104_183_ACLYAGVK (UniProt P15104) | -0.0478 | 0.118 |
| GMDS_O60547_92_LHYGDLTDSTCLVK (UniProt O60547) | -0.0234 | 0.105 |
| GNB1_P62873_25_KACADATLSQITNNIDPVGR (UniProt P62873) | -0.198 | -0.211 |
| GNB1_P62873_149_ELAGHTGYLSCCR (UniProt P62873) | 0.0453 | 0.0662 |
| GNL3L_Q9NVN8_490_IGDLTGYCTNPNR (UniProt Q9NVN8) | -0.0839 | -0.179 |

| Target | probe-labelled cysteine peptide fold change (10 µM) | probe-labelled cysteine peptide fold change (50 µM) |
| --- | --- | --- |
| GMFB_P60983_8_SESLVVCDVAEDLVEK (UniProt P60983) | -0.123 | -0.144 |
| GNB1_P62873_25_ACADATLSQITNNIDPVGR (UniProt P62873) | 0.0281 | -0.0319 |
| GLG1_Q92896_1092_QMSCLMEALEDK (UniProt Q92896) | -0.00141 | 0.102 |
| GOPC_Q9HD26_408_LYLDELEGGGNPGASCK (UniProt Q9HD26) | -0.0816 | -0.231 |
| GIT2_Q14161_235_LAFYLCGR (UniProt Q14161) | -0.0819 | -0.00883 |
| GNL1_P36915_365_DGVVTIGCVGFPNVGK (UniProt P36915) | 0.0236 | 0.00145 |
| GOLPH3_Q9H4A6_108_LQLEACGMR (UniProt Q9H4A6) | -0.104 | -0.0563 |
| GNPAT_O15228_668_LEEMLGCK (UniProt O15228) | 0.12 | 0.037 |
| GLA_P06280_56_FMCNLDCQEEPDSCISEK (UniProt P06280) | 0.0477 | -0.166 |
| GMIP_Q9P107_895_LCEETPITSVPR (UniProt Q9P107) | 0.0542 | -0.00741 |
| GLG1_Q92896_970_AKDDSELEGQVISCLK (UniProt Q92896) | -0.127 | -0.0527 |
| GOLGA3_Q08378_769_EDTICLLQNEK (UniProt Q08378) | -0.0838 | -0.0912 |
| GLG1_Q92896_528_SGDPMILSCLMEHLYTEK (UniProt Q92896) | -0.0124 | -0.0209 |
| GMEB2_Q9UKD1_323_DLAALEQQCDEHR (UniProt Q9UKD1) | 0.0818 | 0.0416 |
| GPC4_O75487_341_VFQGCGPPK (UniProt O75487) | 0.047 | 0.208 |
| GNPDA2_Q8TDQ7_239_TIFVCDEDATLELR (UniProt Q8TDQ7) | 0.25 | 0.0344 |
| GLG1_Q92896_542_MVEDCEHR (UniProt Q92896) | -0.00882 | 0.0634 |
| GMPPA_Q96IJ6_335_ESIVLHGATLQEHTCVLHSIVGWGSTVGR (UniProt Q96IJ6) | -0.0429 | -0.0368 |
| GNB4_Q9HAV0_25_ACNDATLVQITSNMDSVGR (UniProt Q9HAV0) | -0.197 | -0.202 |
| GNAI3_P08754_66_IIHEDGYSEDECK (UniProt P08754) | 0.166 | 0.0498 |
